Source: the supplement of paper PMC6411743
± gives the standard deviation of the averaged measurements. Only a part is listed here, and it is no random draw.

Sequences of proteins named here, by UniProt entry; tags and fusion partners are left off. A change or cut given only in a name is not applied to a line headed by its entry.
UniProt P53990, whole entry: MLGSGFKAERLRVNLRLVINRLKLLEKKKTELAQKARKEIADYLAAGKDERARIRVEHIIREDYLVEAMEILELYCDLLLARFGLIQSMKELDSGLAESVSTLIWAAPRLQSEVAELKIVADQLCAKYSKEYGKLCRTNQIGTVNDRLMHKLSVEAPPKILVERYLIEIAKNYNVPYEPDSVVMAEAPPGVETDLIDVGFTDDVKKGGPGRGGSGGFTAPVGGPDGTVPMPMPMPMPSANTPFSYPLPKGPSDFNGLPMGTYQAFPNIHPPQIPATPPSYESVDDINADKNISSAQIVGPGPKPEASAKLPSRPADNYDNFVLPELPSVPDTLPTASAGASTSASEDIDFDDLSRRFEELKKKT
UniProt P46531, whole entry: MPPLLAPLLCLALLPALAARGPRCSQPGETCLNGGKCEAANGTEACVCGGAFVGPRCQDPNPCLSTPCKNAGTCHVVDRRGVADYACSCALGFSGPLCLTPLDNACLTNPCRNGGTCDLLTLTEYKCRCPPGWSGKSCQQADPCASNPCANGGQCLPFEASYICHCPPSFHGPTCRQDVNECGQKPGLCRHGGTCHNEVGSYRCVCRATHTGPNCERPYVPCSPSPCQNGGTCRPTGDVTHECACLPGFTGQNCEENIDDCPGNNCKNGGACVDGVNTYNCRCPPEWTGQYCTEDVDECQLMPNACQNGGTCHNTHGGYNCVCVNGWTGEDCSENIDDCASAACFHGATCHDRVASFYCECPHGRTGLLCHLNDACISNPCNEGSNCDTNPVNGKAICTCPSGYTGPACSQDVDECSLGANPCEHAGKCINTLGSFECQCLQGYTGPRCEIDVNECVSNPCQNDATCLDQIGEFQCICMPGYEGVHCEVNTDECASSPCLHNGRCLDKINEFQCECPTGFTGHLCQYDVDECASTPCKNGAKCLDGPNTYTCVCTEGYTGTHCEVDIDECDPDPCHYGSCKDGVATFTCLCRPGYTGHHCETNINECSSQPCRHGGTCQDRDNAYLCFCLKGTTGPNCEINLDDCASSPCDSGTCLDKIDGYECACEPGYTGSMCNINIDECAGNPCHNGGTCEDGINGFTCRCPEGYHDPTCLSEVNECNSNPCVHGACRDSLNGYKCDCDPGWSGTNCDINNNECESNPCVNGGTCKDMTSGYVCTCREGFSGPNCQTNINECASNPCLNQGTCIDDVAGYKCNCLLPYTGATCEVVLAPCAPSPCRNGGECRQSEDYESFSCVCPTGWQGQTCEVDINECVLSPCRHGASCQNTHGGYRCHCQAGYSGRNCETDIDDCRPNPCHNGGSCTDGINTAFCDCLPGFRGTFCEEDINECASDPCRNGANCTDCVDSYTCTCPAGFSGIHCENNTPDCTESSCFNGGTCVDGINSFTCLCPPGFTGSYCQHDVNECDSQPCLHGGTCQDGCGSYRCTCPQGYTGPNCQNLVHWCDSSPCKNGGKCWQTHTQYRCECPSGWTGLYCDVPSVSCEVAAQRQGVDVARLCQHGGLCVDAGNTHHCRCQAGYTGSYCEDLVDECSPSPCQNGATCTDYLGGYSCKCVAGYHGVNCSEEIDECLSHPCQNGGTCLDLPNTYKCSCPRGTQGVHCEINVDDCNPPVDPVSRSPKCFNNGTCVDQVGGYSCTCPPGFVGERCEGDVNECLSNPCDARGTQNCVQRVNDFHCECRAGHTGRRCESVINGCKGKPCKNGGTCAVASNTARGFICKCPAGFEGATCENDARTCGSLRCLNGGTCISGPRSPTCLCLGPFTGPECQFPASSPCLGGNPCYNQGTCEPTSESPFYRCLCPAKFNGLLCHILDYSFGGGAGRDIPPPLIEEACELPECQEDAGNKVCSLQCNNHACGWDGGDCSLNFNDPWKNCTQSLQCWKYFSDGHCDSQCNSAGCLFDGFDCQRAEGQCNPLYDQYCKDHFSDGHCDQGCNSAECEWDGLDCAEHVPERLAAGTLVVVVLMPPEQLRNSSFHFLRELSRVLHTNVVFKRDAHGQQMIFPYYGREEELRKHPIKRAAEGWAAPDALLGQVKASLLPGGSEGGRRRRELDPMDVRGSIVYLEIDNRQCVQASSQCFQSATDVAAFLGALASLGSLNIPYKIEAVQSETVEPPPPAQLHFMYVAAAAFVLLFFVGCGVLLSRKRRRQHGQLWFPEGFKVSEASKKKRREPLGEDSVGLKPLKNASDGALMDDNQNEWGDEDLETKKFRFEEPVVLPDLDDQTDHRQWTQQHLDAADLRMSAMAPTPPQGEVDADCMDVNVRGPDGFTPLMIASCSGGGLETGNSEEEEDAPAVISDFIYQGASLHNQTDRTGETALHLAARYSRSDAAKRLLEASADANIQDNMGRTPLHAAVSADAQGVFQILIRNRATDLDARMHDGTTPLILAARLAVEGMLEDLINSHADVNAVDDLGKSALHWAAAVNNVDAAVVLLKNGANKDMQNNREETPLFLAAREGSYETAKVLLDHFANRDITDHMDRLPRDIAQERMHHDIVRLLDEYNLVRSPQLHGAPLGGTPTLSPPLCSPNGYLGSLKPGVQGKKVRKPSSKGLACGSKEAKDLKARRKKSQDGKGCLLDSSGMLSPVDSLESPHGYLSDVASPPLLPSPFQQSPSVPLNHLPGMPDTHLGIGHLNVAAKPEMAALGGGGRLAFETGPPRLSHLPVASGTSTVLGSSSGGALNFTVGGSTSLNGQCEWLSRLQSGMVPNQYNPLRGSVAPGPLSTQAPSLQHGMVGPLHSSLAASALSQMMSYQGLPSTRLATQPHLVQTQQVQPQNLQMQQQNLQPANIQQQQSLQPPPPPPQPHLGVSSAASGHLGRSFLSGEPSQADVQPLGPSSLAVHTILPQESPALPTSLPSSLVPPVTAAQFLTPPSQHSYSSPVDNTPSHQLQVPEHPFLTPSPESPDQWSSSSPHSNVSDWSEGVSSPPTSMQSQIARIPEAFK
UniProt P45973, whole entry: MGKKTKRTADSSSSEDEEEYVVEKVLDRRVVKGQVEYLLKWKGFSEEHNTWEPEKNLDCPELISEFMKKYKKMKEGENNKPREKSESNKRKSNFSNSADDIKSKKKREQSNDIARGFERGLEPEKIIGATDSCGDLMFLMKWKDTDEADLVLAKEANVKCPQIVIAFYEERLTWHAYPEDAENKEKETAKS
UniProt P42224: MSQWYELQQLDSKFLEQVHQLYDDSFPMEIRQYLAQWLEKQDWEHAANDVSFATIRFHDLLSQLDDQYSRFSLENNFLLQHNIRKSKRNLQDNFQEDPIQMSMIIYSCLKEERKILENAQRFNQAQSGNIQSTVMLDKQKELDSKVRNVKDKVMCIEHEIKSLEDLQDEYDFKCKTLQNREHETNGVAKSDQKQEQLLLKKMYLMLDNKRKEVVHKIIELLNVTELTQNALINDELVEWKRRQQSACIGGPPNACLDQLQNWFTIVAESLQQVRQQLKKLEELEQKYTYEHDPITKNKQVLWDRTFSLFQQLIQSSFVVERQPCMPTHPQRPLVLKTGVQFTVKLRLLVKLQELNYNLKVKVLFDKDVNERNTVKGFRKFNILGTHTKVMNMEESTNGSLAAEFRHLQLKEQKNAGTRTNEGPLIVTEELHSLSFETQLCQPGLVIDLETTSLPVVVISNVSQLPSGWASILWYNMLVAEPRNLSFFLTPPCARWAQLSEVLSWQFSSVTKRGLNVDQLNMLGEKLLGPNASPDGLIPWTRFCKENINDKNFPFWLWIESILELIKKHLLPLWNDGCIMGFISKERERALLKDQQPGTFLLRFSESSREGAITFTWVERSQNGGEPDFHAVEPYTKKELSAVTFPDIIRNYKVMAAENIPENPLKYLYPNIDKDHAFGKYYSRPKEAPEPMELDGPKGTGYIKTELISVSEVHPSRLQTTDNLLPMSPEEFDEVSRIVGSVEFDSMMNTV
UniProt P46976: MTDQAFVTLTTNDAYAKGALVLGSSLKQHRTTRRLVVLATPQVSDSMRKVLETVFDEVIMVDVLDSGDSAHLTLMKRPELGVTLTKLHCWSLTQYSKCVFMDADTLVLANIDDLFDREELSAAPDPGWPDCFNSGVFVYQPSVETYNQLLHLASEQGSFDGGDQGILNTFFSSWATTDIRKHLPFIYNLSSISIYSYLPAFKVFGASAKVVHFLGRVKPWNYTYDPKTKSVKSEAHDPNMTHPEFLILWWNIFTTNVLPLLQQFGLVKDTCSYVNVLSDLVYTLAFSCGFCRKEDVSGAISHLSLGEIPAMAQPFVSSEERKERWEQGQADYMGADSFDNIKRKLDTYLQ
UniProt P43007: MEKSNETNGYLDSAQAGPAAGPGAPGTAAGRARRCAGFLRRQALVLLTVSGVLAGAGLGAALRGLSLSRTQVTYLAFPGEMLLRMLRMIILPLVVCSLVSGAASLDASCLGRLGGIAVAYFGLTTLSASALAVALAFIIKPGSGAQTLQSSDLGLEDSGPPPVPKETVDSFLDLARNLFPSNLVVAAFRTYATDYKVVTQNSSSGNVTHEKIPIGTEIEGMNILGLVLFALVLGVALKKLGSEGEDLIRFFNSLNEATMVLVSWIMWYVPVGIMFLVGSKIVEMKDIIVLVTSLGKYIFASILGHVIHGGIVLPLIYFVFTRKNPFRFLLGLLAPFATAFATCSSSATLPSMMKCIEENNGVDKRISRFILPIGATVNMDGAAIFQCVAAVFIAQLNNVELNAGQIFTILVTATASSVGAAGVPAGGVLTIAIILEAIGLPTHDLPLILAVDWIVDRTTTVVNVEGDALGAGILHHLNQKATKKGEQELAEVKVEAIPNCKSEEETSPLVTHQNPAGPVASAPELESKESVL
UniProt P54652, whole entry: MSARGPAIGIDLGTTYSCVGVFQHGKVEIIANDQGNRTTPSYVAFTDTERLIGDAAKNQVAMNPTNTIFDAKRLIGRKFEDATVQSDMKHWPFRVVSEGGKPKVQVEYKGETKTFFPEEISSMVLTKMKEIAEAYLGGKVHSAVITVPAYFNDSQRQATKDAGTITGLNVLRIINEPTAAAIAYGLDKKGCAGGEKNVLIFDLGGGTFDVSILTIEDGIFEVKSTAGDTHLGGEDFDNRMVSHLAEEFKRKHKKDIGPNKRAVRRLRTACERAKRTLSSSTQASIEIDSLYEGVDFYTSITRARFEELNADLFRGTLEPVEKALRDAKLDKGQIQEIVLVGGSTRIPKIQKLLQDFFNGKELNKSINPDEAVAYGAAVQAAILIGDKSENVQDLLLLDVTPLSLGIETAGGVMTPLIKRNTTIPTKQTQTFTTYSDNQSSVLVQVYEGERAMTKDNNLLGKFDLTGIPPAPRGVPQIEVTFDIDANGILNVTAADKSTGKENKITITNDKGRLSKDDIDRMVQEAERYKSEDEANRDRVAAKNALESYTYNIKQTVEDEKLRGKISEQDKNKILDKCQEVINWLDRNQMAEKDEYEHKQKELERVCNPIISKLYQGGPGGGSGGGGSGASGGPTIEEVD
UniProt P48506: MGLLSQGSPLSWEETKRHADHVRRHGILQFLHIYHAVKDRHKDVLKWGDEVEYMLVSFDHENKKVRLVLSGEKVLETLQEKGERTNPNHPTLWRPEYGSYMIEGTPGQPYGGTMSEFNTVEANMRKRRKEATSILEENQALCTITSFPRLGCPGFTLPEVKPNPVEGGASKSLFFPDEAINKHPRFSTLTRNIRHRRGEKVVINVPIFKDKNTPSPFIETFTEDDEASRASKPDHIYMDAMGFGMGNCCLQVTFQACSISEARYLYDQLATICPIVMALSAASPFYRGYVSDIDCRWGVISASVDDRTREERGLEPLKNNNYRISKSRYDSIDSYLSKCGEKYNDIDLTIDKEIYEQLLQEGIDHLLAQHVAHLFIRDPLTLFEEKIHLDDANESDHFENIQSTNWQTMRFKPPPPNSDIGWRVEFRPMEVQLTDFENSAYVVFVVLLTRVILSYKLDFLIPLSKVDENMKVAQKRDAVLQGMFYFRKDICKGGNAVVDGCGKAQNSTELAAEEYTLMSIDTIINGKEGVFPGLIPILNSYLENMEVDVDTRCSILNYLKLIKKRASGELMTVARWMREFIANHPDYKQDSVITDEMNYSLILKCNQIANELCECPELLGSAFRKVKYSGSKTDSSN
UniProt P55211: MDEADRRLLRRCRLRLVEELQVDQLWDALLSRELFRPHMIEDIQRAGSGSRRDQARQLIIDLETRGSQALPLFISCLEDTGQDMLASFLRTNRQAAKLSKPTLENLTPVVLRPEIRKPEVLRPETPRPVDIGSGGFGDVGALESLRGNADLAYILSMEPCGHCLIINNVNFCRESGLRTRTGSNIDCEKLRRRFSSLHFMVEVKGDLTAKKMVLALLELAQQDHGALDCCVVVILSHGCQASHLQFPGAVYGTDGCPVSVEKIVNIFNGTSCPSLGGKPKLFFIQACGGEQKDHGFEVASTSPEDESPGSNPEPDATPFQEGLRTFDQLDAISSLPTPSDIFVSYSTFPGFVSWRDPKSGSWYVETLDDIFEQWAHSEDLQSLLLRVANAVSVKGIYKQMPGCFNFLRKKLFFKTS

Compound: Nc1ncnc2c1ncn2[C@@H]1O[C@H](COP(=O)(O)OP(=O)(O)NP(=O)(O)O)[C@@H](O)[C@H]1O [adenylyl imidodiphosphate]
Assay: NP40-soluble protein abundance relative to vehicle (solubility fold change) (ratio); higher = more soluble protein in presence of AMP-PNP
Summary of the method: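 Data come from three independent experiments in which Dounce-homogenised Jurkat crude lysate was treated at eight concentrations from 0.1 to 10 mM. Treatment ran 10 min at room temperature and then 3 min at 37 °C, after which 0.8% NP40 and benzonase were added for 60 min at 4 °C before ultracentrifugation. The supernatant underwent TMT labelling and LC-MS/MS, and vsn-normalised intensities were expressed as fold change against the detergent-processed vehicle in each replicate.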

Target	NP40-soluble protein abundance (concentration: 1mM)	NP40-soluble protein abundance (concentration: 2mM)	NP40-soluble protein abundance (concentration: 4mM)	NP40-soluble protein abundance (concentration: 6mM)	NP40-soluble protein abundance (concentration: 8mM)	NP40-soluble protein abundance (concentration: 10mM)
UniProt P42568 and related entries	1 ± 0.019	1.01 ± 0.013	1.03 ± 0.039	1.01 ± 0.017	1.02 ± 0.011	1.061 ± 0.0051
RAD23B (UniProt P54727)	0.956 ± 0.049	1.01 ± 0.072	0.91 ± 0.032	0.896 ± 0.027	0.863 ± 0.039	0.882 ± 0.051
UniProt P48454 and related entries	1.02 ± 0.027	1.01 ± 0.014	1.01 ± 0.045	0.984 ± 0.025	0.976 ± 0.038	0.967 ± 0.046
PTPN9 (UniProt P43378)	0.982 ± 0.043	0.944 ± 0.031	0.977 ± 0.05	0.978 ± 0.026	0.968 ± 0.02	0.974 ± 0.017
UniProt P51649 and related entries	0.964 ± 0.031	0.934 ± 0.025	0.953 ± 0.025	0.9345 ± 0.0083	0.939 ± 0.03	0.914 ± 0.016
ADK (UniProt P55263)	0.9872 ± 0.0072	0.9401 ± 0.0044	0.964 ± 0.032	1.01 ± 0.056	1.04 ± 0.033	1.01 ± 0.024
UniProt P53990 and related entries	0.979 ± 0.018	0.9732 ± 0.0063	0.948 ± 0.021	0.9908 ± 0.0032	0.971 ± 0.0057	0.96 ± 0.049
NOTCH1 (UniProt P46531)	1.03 ± 0.011	1.05 ± 0.041	1.01 ± 0.015	1.01 ± 0.028	0.9787 ± 0.008	0.969 ± 0.038
KNTC1 (UniProt P50748)	0.914 ± 0.038	0.856 ± 0.086	0.946 ± 0.053	0.958 ± 0.038	0.987 ± 0.026	0.935 ± 0.075
MVD (UniProt P53602)	0.971 ± 0.021	0.9638 ± 0.0049	1.01 ± 0.025	1.02 ± 0.056	1 ± 0.042	1 ± 0.051
NCAPD3 (UniProt P42695)	0.993 ± 0.023	0.977 ± 0.058	0.988 ± 0.031	0.936 ± 0.045	0.928 ± 0.015	0.96 ± 0.038
CBX5 (UniProt P45973)	1.08 ± 0.025	1.18 ± 0.085	1.18 ± 0.037	1.21 ± 0.056	1.24 ± 0.054	1.32 ± 0.03
HDGF (UniProt P51858)	1 ± 0.028	1.08 ± 0.08	0.959 ± 0.069	0.995 ± 0.025	0.943 ± 0.04	0.977 ± 0.085
TPMT (UniProt P51580)	0.997 ± 0.065	0.931 ± 0.035	0.98 ± 0.046	0.994 ± 0.075	1.03 ± 0.06	0.987 ± 0.083
UniProt P49589 and related entries	1 ± 0.018	0.972 ± 0.036	0.957 ± 0.03	0.949 ± 0.013	0.9488 ± 0.0077	0.929 ± 0.04
EMD (UniProt P50402)	0.968 ± 0.023	0.989 ± 0.018	0.985 ± 0.05	0.971 ± 0.048	0.982 ± 0.072	0.967 ± 0.061
MTHFR (UniProt P42898)	1.01 ± 0.048	0.963 ± 0.046	0.996 ± 0.052	1.01 ± 0.021	0.987 ± 0.025	0.979 ± 0.012
HSD17B4 (UniProt P51659)	1.01 ± 0.034	0.967 ± 0.026	1.04 ± 0.041	1.09 ± 0.058	1.12 ± 0.033	1.1 ± 0.034
UniProt P49748 and related entries	0.946 ± 0.041	0.877 ± 0.086	0.9404 ± 0.0076	0.972 ± 0.066	0.995 ± 0.018	0.949 ± 0.019
SMARCA2 (UniProt P51531)	1.01 ± 0.02	1.04 ± 0.065	1.04 ± 0.035	1.05 ± 0.034	1.07 ± 0.033	1.1 ± 0.072

Complete entries as entered above. Order of values: NP40-soluble protein abundance (concentration: 1mM)	NP40-soluble protein abundance (concentration: 2mM)	NP40-soluble protein abundance (concentration: 4mM)	NP40-soluble protein abundance (concentration: 6mM)	NP40-soluble protein abundance (concentration: 8mM)	NP40-soluble protein abundance (concentration: 10mM)
UniProt P49748 and related entries is entered as 0.946 ± 0.041	0.877 ± 0.086	0.9404 ± 0.0076	0.972 ± 0.066	0.995 ± 0.018	0.949 ± 0.019
PTPN9 (UniProt P43378) is entered as 0.982 ± 0.043	0.944 ± 0.031	0.977 ± 0.05	0.978 ± 0.026	0.968 ± 0.02	0.974 ± 0.017
UniProt P48454 and related entries is entered as 1.02 ± 0.027	1.01 ± 0.014	1.01 ± 0.045	0.984 ± 0.025	0.976 ± 0.038	0.967 ± 0.046
UniProt P51649 and related entries is entered as 0.964 ± 0.031	0.934 ± 0.025	0.953 ± 0.025	0.9345 ± 0.0083	0.939 ± 0.03	0.914 ± 0.016

Continued.

Target	NP40-soluble protein abundance (concentration: 1mM)	NP40-soluble protein abundance (concentration: 2mM)	NP40-soluble protein abundance (concentration: 4mM)	NP40-soluble protein abundance (concentration: 6mM)	NP40-soluble protein abundance (concentration: 8mM)	NP40-soluble protein abundance (concentration: 10mM)
NUP153 (UniProt P49790)	1.03 ± 0.024	1.09 ± 0.055	1.06 ± 0.018	1.09 ± 0.048	1.09 ± 0.05	1.17 ± 0.018
MAGEA9 (UniProt P43362)	0.9861 ± 0.0097	0.978 ± 0.015	0.9773 ± 0.0039	0.979 ± 0.038	0.977 ± 0.053	0.9402 ± 0.0088
UniProt P46736 and related entries	0.961 ± 0.048	0.943 ± 0.03	0.984 ± 0.024	0.985 ± 0.04	0.995 ± 0.022	0.955 ± 0.019
RPL21 (UniProt P46778)	1.03 ± 0.079	1.04 ± 0.053	1 ± 0.14	0.894 ± 0.12	0.807 ± 0.049	0.912 ± 0.18
UniProt P42331 and related entries	1.03 ± 0.043	0.992 ± 0.059	1.04 ± 0.053	0.969 ± 0.043	0.983 ± 0.052	0.976 ± 0.064
GNPDA1 (UniProt P46926)	0.926 ± 0.077	0.869 ± 0.0095	0.968 ± 0.12	1.14 ± 0.16	1.15 ± 0.14	1.11 ± 0.11
UniProt P51608-2|P51608 and related entries	1.04 ± 0.023	1.06 ± 0.016	1.04 ± 0.046	1.07 ± 0.019	1.07 ± 0.028	1.15 ± 0.042
UniProt P49116-2|P49116	0.976 ± 0.026	1 ± 0.019	0.974 ± 0.029	1.02 ± 0.021	0.958 ± 0.02	1.02 ± 0.039
UniProt P52564	1.03 ± 0.06	1.01 ± 0.035	1.02 ± 0.037	0.971 ± 0.011	0.951 ± 0.036	0.936 ± 0.045
UniProt P49005 and related entries	0.977 ± 0.021	0.947 ± 0.059	0.973 ± 0.027	0.929 ± 0.011	0.9339 ± 0.0057	0.925 ± 0.037
RANBP2 (UniProt P49792)	1.04 ± 0.038	1.06 ± 0.027	1.04 ± 0.027	1.06 ± 0.056	1.07 ± 0.066	1.16 ± 0.082
FNTB (UniProt P49356)	1.02 ± 0.014	0.9976 ± 0.0089	1.02 ± 0.054	1.01 ± 0.029	1.01 ± 0.011	1.04 ± 0.013
STAT1 (UniProt P42224)	1.02 ± 0.021	0.987 ± 0.043	0.996 ± 0.022	0.952 ± 0.017	0.9488 ± 0.0094	0.936 ± 0.043
UniProt P41229 and related entries	1.05 ± 0.036	1.01 ± 0.017	1 ± 0.024	0.981 ± 0.056	0.995 ± 0.036	0.984 ± 0.042
NCKAP1L (UniProt P55160)	0.975 ± 0.021	0.905 ± 0.085	0.955 ± 0.027	0.955 ± 0.072	0.975 ± 0.046	0.914 ± 0.037
UniProt P46976 and related entries	1 ± 0.058	1.04 ± 0.073	1 ± 0.068	1.01 ± 0.063	1 ± 0.06	1.04 ± 0.12
MTOR (UniProt P42345)	0.982 ± 0.033	0.938 ± 0.07	0.971 ± 0.019	0.932 ± 0.025	0.938 ± 0.021	0.9298 ± 0.0017
UniProt P45880 and related entries	1 ± 0.045	0.959 ± 0.017	0.984 ± 0.046	1.04 ± 0.075	1.07 ± 0.039	1.02 ± 0.045
EPS15 (UniProt P42566)	1.03 ± 0.032	1.06 ± 0.032	1.04 ± 0.063	0.992 ± 0.044	0.962 ± 0.057	0.962 ± 0.039
RBM5 (UniProt P52756)	1.05 ± 0.026	1.072 ± 0.0062	1.09 ± 0.038	1.06 ± 0.071	1.06 ± 0.061	1.1 ± 0.071

Target	NP40-soluble protein abundance (concentration: 1mM)	NP40-soluble protein abundance (concentration: 2mM)	NP40-soluble protein abundance (concentration: 4mM)	NP40-soluble protein abundance (concentration: 6mM)	NP40-soluble protein abundance (concentration: 8mM)	NP40-soluble protein abundance (concentration: 10mM)
ETV6 (UniProt P41212)	0.975 ± 0.03	0.9849 ± 0.0036	0.957 ± 0.035	1 ± 0.026	0.9823 ± 0.0063	0.947 ± 0.047
UniProt P55327-2|P55327-4	0.887 ± 0.017	0.91 ± 0.054	0.915 ± 0.048	0.93 ± 0.024	0.88 ± 0.069	0.845 ± 0.087
ST13 (UniProt P50502)	0.965 ± 0.024	1.06 ± 0.12	1 ± 0.024	1.03 ± 0.031	0.976 ± 0.028	1.01 ± 0.03
UniProt P53004 and related entries	0.964 ± 0.052	0.891 ± 0.052	0.936 ± 0.043	0.982 ± 0.067	1.01 ± 0.049	0.949 ± 0.038
PIK3CG (UniProt P48736)	0.998 ± 0.041	0.976 ± 0.026	0.997 ± 0.023	0.98 ± 0.028	0.972 ± 0.023	0.959 ± 0.064
DRG2 (UniProt P55039)	1 ± 0.02	0.933 ± 0.073	1.01 ± 0.019	0.981 ± 0.027	1.01 ± 0.028	0.987 ± 0.02
UniProt P45985	0.974 ± 0.01	1.008 ± 0.0097	0.991 ± 0.015	0.994 ± 0.04	0.963 ± 0.02	1.02 ± 0.037
CAPZA1 (UniProt P52907)	0.9903 ± 0.0052	0.972 ± 0.02	0.984 ± 0.024	1.002 ± 0.0036	0.992 ± 0.016	1 ± 0.017
SLC1A4 (UniProt P43007)	1.029 ± 0.0013	1.05 ± 0.024	1.017 ± 0.0062	0.998 ± 0.041	0.996 ± 0.023	0.979 ± 0.018
UniProt P51513 and related entries	0.999 ± 0.023	1 ± 0.013	0.99 ± 0.034	1 ± 0.016	0.987 ± 0.032	1.01 ± 0.025
HSPA2 (UniProt P54652)	1.01 ± 0.025	1 ± 0.034	1.01 ± 0.0021	0.9977 ± 0.0056	1.01 ± 0.029	0.999 ± 0.017
UniProt P55265 and related entries	1.04 ± 0.058	1.03 ± 0.055	1.05 ± 0.062	1.09 ± 0.066	1.08 ± 0.062	1.09 ± 0.096
UniProt P46013 and related entries	1.058 ± 0.0011	1.12 ± 0.075	1.08 ± 0.035	1.07 ± 0.011	1.05 ± 0.024	1.1 ± 0.062
UniProt P48449 and related entries	0.968 ± 0.035	0.857 ± 0.13	0.973 ± 0.026	0.943 ± 0.029	0.995 ± 0.015	0.924 ± 0.033
UniProt P46934-4|H0Y9L1	0.981 ± 0.018	0.918 ± 0.038	0.989 ± 0.01	0.966 ± 0.04	1 ± 0.034	0.976 ± 0.063
NDUFA8 (UniProt P51970)	0.984 ± 0.063	1.009 ± 0.006	0.95 ± 0.04	0.943 ± 0.031	0.958 ± 0.02	0.92 ± 0.055
GCLC (UniProt P48506)	0.993 ± 0.027	0.928 ± 0.043	0.976 ± 0.033	0.941 ± 0.014	0.963 ± 0.029	0.922 ± 0.02
UniProt P55211 and related entries	0.981 ± 0.043	0.991 ± 0.029	0.997 ± 0.034	1.01 ± 0.032	1.01 ± 0.045	0.98 ± 0.021
UniProt P53396 and related entries	0.9442 ± 0.0094	0.854 ± 0.1	0.916 ± 0.042	0.923 ± 0.022	0.946 ± 0.04	0.895 ± 0.073
UniProt P51532 and related entries	1.02 ± 0.043	1.08 ± 0.052	1.04 ± 0.037	1.09 ± 0.068	1.06 ± 0.061	1.14 ± 0.13
